Assay results: patent US11319337B2, “3-desoxy derivative and pharmaceutical compositions thereof” (Intercept Pharmaceuticals, Inc., priority 2016, dated 2022)
Counter-ions that a name gives are not always drawn. For at least one compound, name, drawing or mass did not settle the structure.

Experiment: Surface tension at CMC
Type: physicochemical
Conditions: in […] NaCl water solution; in mN/m (unit assumed)
Description: Physiochemical properties of Compound 1 such as water solubility, critical micellar concentration, surface tension, and LogPA were determined using methods known in the art.

With `CCC1C(O)C2C3CCC(C(C)CCOS(=O)(=O)O)C3(C)CCC2C2(C)CCC(O)CC12` (stereo not drawn) [Compound B, 6α-ethyl-3α,7α,23-trihydroxy-24-nor-5β-cholan-23-sulfate sodium salt] the “STCMC (Surface Tension at CMC)” value was 43.3-47.9.
